Results are given in words; binding and its absence hold for the method and conditions named. In cells and extracts the contact can be indirect. Some entries that bind do so weakly or less than the wild type.
Tests used:
[1] = target: TRAIL-R2/DR5 (human (endogenous in U87MG)) (UniProt O14763); test: condition: only after knockdown of PIM2 and PIM3 by siRNA; pull-down; DISC precipitation with biotin-TRAIL (1000 ng/mL, 90 min) and streptavidin-agarose from U87MG cells after knockdown of PIM2 and PIM3 by siRNA (48 h); two endogenous proteins in the precipitate; western blot
[2] = target: TRAIL-R2/DR5 (human (endogenous in U87MG)) (UniProt O14763); test: pull-down; same DISC precipitation with biotin-TRAIL and streptavidin-agarose from control (scrambled siRNA) U87MG cells; two endogenous proteins found together in the precipitate; western blot

binding [1]: no binding
binding [2]: binds
Substance: p62/SQSTM1 (from UniProt Q13501 1-440)

Source: paper PMC6362213
